Results as given in PMC8974194.
These are yes or no findings as the source states them, for the method shown. Binding seen in cells or lysates may run through a third protein. Some entries that bind do so weakly or less than the wild type.

By UniProt entry, the sequences of proteins in these tests, tags left out.
UniProt P35222: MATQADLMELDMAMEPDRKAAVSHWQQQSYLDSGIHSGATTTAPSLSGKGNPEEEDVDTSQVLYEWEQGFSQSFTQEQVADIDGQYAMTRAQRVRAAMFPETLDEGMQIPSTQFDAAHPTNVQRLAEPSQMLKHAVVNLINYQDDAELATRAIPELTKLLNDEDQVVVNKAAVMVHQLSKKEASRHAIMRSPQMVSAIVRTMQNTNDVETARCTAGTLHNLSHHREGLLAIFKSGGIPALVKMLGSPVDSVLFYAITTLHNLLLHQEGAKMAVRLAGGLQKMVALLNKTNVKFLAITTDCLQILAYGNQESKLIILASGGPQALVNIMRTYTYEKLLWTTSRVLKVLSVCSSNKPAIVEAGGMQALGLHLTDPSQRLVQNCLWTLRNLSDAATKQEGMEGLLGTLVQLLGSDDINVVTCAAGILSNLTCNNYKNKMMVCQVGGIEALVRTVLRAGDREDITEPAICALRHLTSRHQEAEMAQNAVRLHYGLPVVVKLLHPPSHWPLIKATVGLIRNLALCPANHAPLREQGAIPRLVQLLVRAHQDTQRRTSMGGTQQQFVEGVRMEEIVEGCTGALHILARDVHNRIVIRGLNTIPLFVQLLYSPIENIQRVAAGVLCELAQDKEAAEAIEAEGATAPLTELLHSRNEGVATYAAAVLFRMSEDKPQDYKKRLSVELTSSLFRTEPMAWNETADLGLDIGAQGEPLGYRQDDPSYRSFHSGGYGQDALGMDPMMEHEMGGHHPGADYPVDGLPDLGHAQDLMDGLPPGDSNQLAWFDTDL
UniProt Q15717: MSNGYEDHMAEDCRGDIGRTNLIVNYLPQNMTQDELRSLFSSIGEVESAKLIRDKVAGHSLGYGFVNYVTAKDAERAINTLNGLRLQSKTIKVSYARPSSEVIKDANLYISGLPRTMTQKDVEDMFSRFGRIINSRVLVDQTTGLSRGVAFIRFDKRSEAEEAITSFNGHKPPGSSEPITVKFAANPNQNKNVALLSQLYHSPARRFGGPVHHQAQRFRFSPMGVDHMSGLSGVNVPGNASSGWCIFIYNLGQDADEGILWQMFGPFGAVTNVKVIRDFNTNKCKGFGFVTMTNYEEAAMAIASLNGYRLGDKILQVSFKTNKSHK

Molecular target: β-catenin (CTNNB1) (human (endogenous in colorectal cancer cells, SW480 or HCT116)) (UniProt P35222)
Test: co-IP; 5 x 10^6 cells lysed in NP40 buffer with 1x cocktail; 500 ug protein with 5 ug RIgG or antibody overnight at 4°C, 50 ul agarose beads 3 h at 4°C; Western blot

- binding: binds
Substance: HuR (ELAVL1) (from UniProt Q15717 1-326)
